# The supplement of paper PMC12819154, “High-throughput peptide-centric local stability assay extends protein–ligand identification to membrane proteins, tissues and bacteria” (Nature Structural & Molecular Biology, 2025)
# Protein sequences, listed by entry. Tags and fused reporters are not part of them. Lines headed by an entry give the natural chain unless they say otherwise; changes in a name come on top.
# UniProt Q9NPJ8: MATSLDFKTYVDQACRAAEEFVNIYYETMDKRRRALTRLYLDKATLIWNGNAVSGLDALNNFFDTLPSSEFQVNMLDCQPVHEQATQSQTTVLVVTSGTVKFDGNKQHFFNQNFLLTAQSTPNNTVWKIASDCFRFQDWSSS
# UniProt Q9NP81: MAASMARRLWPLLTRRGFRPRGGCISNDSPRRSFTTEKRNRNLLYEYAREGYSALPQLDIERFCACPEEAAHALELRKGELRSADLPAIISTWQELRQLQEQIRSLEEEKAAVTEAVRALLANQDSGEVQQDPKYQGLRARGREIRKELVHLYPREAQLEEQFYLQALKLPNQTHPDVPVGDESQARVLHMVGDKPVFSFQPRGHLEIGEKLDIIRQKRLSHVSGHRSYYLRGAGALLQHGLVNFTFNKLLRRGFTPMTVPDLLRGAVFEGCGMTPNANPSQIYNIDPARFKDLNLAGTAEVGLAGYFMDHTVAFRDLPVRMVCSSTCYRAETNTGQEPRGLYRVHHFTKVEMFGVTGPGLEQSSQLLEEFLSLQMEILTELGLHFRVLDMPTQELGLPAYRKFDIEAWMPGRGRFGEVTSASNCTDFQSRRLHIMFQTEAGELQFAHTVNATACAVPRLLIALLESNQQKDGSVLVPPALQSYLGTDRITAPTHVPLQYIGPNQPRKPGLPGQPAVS
# UniProt Q9NRY5: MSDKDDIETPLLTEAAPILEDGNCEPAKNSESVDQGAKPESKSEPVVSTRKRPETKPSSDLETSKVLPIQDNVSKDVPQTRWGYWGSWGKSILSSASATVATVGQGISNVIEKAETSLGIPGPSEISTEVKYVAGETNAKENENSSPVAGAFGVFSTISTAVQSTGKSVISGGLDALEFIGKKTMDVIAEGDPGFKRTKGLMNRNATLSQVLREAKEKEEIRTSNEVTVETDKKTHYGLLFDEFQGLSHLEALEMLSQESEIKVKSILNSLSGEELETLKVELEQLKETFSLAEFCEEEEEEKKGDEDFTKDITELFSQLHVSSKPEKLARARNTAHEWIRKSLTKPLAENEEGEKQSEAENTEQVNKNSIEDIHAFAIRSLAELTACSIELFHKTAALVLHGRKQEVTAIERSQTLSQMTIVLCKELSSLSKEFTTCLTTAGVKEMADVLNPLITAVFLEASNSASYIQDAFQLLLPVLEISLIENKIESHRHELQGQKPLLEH
# UniProt Q9NV06: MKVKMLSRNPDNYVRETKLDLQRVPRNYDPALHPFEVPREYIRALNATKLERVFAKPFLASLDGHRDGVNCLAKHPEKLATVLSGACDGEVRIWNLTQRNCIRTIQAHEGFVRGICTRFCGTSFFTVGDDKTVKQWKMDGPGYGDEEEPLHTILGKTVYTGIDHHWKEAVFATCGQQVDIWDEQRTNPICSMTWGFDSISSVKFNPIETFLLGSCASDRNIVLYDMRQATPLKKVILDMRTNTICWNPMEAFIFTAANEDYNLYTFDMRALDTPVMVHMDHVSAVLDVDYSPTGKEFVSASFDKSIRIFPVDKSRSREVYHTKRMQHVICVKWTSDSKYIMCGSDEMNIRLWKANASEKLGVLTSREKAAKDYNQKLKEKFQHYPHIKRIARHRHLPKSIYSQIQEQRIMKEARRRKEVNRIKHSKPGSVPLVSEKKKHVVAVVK
# UniProt Q9NQV6: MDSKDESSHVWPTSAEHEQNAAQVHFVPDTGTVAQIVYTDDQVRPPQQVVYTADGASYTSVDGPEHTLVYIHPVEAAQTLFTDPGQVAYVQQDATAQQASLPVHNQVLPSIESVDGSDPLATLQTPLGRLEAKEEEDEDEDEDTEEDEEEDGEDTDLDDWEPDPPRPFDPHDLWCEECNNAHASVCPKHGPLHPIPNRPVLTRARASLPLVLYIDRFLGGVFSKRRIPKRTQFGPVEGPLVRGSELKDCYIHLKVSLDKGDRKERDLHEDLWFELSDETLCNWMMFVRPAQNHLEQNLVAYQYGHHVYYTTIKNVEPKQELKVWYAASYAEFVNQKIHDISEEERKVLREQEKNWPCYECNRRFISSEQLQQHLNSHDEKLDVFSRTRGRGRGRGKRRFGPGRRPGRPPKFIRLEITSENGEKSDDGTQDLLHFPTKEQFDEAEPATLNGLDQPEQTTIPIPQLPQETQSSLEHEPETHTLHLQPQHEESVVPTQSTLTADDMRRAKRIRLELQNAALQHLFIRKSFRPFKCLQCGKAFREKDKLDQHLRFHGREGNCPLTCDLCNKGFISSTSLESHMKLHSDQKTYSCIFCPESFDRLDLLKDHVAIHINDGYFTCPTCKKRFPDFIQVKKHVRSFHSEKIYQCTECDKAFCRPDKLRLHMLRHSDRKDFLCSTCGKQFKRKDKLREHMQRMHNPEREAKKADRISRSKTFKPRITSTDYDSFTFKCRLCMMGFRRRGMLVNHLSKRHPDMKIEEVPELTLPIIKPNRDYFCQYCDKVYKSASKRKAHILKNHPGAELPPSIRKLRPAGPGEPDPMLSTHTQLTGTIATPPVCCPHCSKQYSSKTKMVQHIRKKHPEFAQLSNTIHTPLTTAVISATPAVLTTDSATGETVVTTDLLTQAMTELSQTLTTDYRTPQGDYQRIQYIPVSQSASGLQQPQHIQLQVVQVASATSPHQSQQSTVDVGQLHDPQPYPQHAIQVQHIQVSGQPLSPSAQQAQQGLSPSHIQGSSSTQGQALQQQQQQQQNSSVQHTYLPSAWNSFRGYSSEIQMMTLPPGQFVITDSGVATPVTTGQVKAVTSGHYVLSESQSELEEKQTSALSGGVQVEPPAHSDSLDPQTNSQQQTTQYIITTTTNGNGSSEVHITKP
# UniProt Q9NPF4: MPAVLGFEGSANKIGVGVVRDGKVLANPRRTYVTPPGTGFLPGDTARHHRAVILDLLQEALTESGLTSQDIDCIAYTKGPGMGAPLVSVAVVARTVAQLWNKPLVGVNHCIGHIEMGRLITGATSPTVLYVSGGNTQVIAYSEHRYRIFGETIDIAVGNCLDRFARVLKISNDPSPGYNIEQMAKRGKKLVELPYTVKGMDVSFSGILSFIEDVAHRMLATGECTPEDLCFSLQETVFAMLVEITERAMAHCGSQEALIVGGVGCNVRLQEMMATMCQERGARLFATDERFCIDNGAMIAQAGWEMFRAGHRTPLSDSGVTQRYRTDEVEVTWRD
# UniProt Q9NRR8: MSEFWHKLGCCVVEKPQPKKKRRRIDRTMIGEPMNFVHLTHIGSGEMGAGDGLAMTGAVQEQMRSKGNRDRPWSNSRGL
# UniProt Q9NWL6: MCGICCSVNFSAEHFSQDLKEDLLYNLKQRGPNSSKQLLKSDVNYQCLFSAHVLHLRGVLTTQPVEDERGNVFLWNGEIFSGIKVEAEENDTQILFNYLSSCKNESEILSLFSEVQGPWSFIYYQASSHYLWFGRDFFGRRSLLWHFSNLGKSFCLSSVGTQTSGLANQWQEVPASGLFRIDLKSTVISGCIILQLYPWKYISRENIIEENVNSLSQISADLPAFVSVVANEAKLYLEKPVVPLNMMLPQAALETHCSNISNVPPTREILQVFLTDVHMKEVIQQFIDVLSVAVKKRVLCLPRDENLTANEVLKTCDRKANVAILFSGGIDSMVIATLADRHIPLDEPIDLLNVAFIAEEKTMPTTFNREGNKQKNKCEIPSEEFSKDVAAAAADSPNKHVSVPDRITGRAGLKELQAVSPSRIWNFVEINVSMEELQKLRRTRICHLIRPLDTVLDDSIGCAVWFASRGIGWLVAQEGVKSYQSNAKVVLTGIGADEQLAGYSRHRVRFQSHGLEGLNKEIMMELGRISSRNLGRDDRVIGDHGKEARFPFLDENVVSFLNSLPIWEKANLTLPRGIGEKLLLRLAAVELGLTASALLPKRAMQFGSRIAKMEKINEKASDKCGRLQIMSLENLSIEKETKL
# UniProt Q9NVN3: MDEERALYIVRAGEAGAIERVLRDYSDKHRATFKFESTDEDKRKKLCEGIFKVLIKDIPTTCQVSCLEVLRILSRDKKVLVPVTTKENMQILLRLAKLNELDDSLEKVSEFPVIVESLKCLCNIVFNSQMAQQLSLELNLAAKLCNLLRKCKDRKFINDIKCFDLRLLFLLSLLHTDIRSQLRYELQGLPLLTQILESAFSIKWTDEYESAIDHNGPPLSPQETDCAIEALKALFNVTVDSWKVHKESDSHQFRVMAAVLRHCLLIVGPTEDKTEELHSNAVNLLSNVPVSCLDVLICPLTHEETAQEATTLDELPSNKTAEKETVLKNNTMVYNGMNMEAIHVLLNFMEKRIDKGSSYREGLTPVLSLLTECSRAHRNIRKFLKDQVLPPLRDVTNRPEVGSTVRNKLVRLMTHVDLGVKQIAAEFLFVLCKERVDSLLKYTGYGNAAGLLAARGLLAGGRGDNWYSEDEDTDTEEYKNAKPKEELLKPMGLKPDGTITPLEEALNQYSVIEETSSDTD
# UniProt Q9NV31: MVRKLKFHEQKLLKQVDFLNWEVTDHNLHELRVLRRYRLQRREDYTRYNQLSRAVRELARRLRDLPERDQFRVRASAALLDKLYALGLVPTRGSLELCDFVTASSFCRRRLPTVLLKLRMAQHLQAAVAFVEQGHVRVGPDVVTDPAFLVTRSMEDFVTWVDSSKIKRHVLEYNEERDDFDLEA
# UniProt Q9NRG4: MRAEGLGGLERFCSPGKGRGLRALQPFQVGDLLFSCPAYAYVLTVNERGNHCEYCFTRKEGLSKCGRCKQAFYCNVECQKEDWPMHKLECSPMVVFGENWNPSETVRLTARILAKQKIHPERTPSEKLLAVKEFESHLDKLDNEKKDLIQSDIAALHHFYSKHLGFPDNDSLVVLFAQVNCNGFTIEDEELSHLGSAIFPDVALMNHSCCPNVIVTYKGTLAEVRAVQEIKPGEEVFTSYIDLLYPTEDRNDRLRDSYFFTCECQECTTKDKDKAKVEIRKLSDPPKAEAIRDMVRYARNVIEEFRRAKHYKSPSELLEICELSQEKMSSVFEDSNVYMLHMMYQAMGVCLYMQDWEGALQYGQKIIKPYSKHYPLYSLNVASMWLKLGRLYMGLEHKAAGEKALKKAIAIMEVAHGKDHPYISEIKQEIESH
# UniProt Q9NS87: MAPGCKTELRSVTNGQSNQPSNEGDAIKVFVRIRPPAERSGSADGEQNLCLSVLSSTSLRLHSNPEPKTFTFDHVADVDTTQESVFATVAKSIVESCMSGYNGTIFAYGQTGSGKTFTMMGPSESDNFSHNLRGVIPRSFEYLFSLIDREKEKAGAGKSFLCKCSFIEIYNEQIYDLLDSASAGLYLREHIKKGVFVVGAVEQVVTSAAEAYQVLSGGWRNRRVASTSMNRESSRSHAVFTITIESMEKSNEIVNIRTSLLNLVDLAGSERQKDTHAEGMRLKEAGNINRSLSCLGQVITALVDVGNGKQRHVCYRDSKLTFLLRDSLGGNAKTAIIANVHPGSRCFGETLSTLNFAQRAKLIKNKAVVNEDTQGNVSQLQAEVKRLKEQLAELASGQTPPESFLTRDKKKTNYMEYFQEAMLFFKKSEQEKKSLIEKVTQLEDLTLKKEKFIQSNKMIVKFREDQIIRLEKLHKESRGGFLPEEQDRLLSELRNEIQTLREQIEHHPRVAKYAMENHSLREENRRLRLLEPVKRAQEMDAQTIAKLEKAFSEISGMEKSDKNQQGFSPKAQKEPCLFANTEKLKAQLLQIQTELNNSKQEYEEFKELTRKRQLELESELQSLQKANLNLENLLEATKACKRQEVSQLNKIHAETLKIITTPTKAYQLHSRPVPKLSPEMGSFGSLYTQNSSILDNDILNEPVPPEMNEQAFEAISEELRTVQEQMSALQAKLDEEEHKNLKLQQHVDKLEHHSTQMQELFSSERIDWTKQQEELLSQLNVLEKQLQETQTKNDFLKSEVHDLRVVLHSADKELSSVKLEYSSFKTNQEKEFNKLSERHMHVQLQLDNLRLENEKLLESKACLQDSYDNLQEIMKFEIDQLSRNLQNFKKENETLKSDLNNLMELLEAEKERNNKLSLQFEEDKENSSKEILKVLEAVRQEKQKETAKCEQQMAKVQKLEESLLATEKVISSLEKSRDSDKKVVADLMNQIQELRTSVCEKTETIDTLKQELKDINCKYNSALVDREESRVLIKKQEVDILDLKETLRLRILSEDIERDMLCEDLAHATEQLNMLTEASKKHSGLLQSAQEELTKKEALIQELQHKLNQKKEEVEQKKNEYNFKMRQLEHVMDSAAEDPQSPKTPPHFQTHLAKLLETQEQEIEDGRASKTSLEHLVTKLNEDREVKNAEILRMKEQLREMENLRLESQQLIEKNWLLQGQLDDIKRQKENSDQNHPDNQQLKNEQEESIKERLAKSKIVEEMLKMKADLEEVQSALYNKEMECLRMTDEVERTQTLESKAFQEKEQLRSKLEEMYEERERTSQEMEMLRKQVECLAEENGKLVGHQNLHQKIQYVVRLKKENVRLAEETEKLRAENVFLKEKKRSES
# UniProt Q9NVP2, whole entry: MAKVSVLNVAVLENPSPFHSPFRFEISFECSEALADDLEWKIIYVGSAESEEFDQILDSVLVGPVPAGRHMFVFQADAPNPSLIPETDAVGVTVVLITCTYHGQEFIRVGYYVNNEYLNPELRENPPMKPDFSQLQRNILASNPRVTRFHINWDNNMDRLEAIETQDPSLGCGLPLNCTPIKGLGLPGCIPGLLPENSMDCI
# The other results are listed elsewhere or left out. Most entries show no effect beyond the scatter of the controls.
# Compound: Cc1nc(Nc2ncc(C(=O)Nc3c(C)cccc3Cl)s2)cc(N2CCN(CCO)CC2)n1 [dasatinib]
# Assay: log2 fold change of tryptic peptide abundance, ligand vs vehicle (limited proteolysis) (log2 ratio); higher = more trypsin-susceptible (destabilized)
# Details: ligand concentration: 5 uM; sample: K562 cleared lysate
row,Target,log2 fold change
1,"NXT2 (peptide sequence: TYVDQACR, peptide start residue: 9) (UniProt Q9NPJ8)",-0.00833
2,"SARS2 (peptide sequence: ELVHLYPR, peptide start residue: 148) (UniProt Q9NP81)",0.161
3,"ANLN (peptide sequence: FKETERPSIK, peptide start residue: 681) (UniProt Q9NQW6)",-0.825
4,"FAM114A2 (peptide sequence: SLTKPLAENEEGEK, peptide start residue: 343) (UniProt Q9NRY5)",0.967
5,"UniProt Q9NV06 (peptide sequence: EFVSASFDK, peptide start residue: 296)",0.303
6,"PRDM10 (peptide sequence: LCMMGFR, peptide start residue: 731) (UniProt Q9NQV6)",0.164
7,"SDAD1 (peptide sequence: MSLDVMIELYRR, peptide start residue: 179) (UniProt Q9NVU7)",0.31
8,"RBFOX1 (peptide sequence: MNCEREQLR, peptide start residue: 1) (UniProt Q9NWB1)",-0.0805
9,"OSGEP (peptide sequence: LVELPYTVK, peptide start residue: 190) (UniProt Q9NPF4)",-0.247
10,"DNAJC11 (peptide sequence: KQEAESAVR, peptide start residue: 435) (UniProt Q9NVH1)",0.331
11,"CDC42SE1 (peptide sequence: LGCCVVEKPQPK, peptide start residue: 8) (UniProt Q9NRR8)",0.245
12,"UniProt Q9NUJ3 (peptide sequence: HALPVGGMAAGSGDMPR, peptide start residue: 282)",0.0361
13,"PCMTD2 (peptide sequence: VGGILVMPLEEK, peptide start residue: 183) (UniProt Q9NV79)",0.257
14,"UniProt Q9NWL6 (peptide sequence: SDVNYQCLFSAHVLHLR, peptide start residue: 41)",0.314
15,"SH2D2A (peptide sequence: QTPEPAGLSLR, peptide start residue: 189) (UniProt Q9NP31)",-0.347
16,"RIC8B (peptide sequence: AGEAGAIER, peptide start residue: 12) (UniProt Q9NVN3)",0.239
17,"GPATCH2 (peptide sequence: GGFAETGDHSR, peptide start residue: 45) (UniProt Q9NW75)",0.151
18,"FANCI (peptide sequence: GKVAGALLR, peptide start residue: 40) (UniProt Q9NVI1)",-0.154
19,"UniProt Q9NRR4 (peptide sequence: AARPPWEPPKTK, peptide start residue: 461)",-0.458
20,"BRD7 (peptide sequence: DLQCHAPVR, peptide start residue: 104) (UniProt Q9NPI1)",1.19
21,"IMP3 (peptide sequence: QVDFLNWEVTDHNLHELR, peptide start residue: 15) (UniProt Q9NV31)",0.117
22,"SMYD2 (peptide sequence: LYMGLEHK, peptide start residue: 391) (UniProt Q9NRG4)",0.238
23,"SNRK (peptide sequence: YNIPLVSYK, peptide start residue: 280) (UniProt Q9NRH2)",-0.335
24,"KIF15 (peptide sequence: LSLQFEEDKENSSK, peptide start residue: 916) (UniProt Q9NS87)",0.205
25,"ASF1B (peptide sequence: FHINWDNNMDR, peptide start residue: 149) (UniProt Q9NVP2)",0.208
26,"UniProt Q9NPA3 (peptide sequence: HSLFNAMNR, peptide start residue: 12)",-0.0791

# Another view of part of the listing above:
row	Target	log2 fold change
22	SMYD2 (peptide sequence: LYMGLEHK, peptide start residue: 391) (UniProt Q9NRG4)	0.238
23	SNRK (peptide sequence: YNIPLVSYK, peptide start residue: 280) (UniProt Q9NRH2)	-0.335
